Measured values reported in PubChem BioAssay AID1347131 (National Center for Advancing Translational Sciences (NCATS), 2019).
About 2,000 (0.49%) of roughly 410,000 compounds were called active. The inconclusive results got no clear call from the source; some entries with a clear call stand among them for comparison. The call rests on the fitted dose curve; tested in HEK293 reporter line. Potencies beside an inconclusive call are fits to weak or partial responses and may not hold up.

Test: qHTS Assay for Foot and Mouth Disease Virus Antivirals: Primary Screen against the MLPCN compound library; further: nearly all actives have a fitted effect of over 55% in size
Conditions: FMDV antiviral cell-based qHTS; activity, negative = inhibition: at 57.9 µM (top of the series)
Potency means the concentration at half of the fitted maximal effect.

Compound | Potency | activity, negative = inhibition
S=C(NCC1CCCO1)N1CCN(c2nc(-c3ccc(Cl)cc3)cs2)CC1 (configuration not stated) | inconclusive: 15.8 µM [inhibitor, partial curve, poor fit] | 
O=C(C=Cc1cccc(Cl)c1)c1ccccc1 | inconclusive: 28.2 µM [inhibitor, single point] | 
c1ccc(N2CCN(c3nc(NCc4ccco4)c4ccccc4n3)CC2)cc1 | inconclusive: 28.2 µM [inhibitor, partial curve, poor fit] | 
O=c1oc2ccccc2cc1-c1csc(Nc2ccc(O)cc2)n1 | inconclusive: 39.8 µM [inhibitor, single point] | 
CCn1c(N2CCN(C(c3ccccc3)c3ccccc3)CC2)nc2c1c(=O)[nH]c(=O)n2C | inconclusive: 7.08 µM [inhibitor, partial curve, poor fit] | 
COc1ccc2c(c1OC)C(=O)OC2Nc1nc(-c2ccccc2)cs1 (configuration not stated) | inconclusive: 15.8 µM [inhibitor, partial curve, poor fit] | 
O=C(Nc1ccc(N2CCOCC2)cc1)c1cn2ccccc2n1 | inconclusive: 12.6 µM [inhibitor, single point] | 
CCCOc1ccc(C(=O)Nc2ccc3oc(-c4cccc(Cl)c4Cl)nc3c2)cc1 | inactive | 
Cc1ccccc1C(=O)N/N=C1/SCC(=O)N1Cc1ccc2c(c1)OCO2 | inactive | 
O=C(c1ccc(Cl)cc1)C(CN1CCCCC1)c1ccccc1 (configuration not stated) | inconclusive: 14.1 µM [inhibitor, partial curve, poor fit] | 
COCCn1c(C)cc(C(=O)COc2ccc(C)nc2[N+](=O)[O-])c1C | inconclusive: 3.55 µM [inhibitor, partial curve, poor fit] | 
Cc1ccc(Nc2sc(C(=O)c3ccccc3)c(N)c2C(=O)Nc2ccc(Cl)cc2)cc1 | active: 15.8 µM | 
COC(=O)c1ccc(-c2ccc(Cl)cc2)nc1C | inconclusive: 35.5 µM [inhibitor, single point] | 
O=C(c1cc(COc2cccc3cnccc23)on1)N1CCCC(CCCO)C1 (configuration not stated) | inconclusive: 31.6 µM [inhibitor, partial curve, poor fit] | 
Cn1cnc(C(=O)NCc2ccc(CNC(=O)OC(C)(C)C)cc2)c1C(=O)NCc1ccc(CNC(=O)OC(C)(C)C)cc1 | inconclusive: 15.8 µM [inhibitor, partial curve, poor fit] | 
CCOC(=O)[C@]12Cc3cc(C)ccc3[C@H]1N(C)C(=O)c1cc(OC)ccc12 | inconclusive: 39.8 µM [inhibitor, single point] | 
COc1cccc2cc(C(=O)NCc3ccc(Cl)cc3)c(=N)oc12 | inactive | 
O=C(Cn1c(CO)nc2ccccc21)Nc1ccc2c(c1)OCCCO2 |  | inconclusive: -30.2% [inhibitor]
CC1C(=O)N(Cc2cn(CCC3OCCO3)nn2)CCS(=O)(=O)N1Cc1ccc(-c2ccc(F)nc2)cc1 (configuration not stated) |  | inconclusive: -30.8% [inhibitor]

Compound | Potency | activity, negative = inhibition
Cc1nc2c(OCc3ccc(OC(F)F)cc3)cccn2c1N(C)C(=O)CCC1CCCC1 | inconclusive: 25.1 µM [inhibitor, single point] | 
CCc1nnc(NC(=O)CCC(=O)N2CCN(c3cc(C)ccc3C)CC2)s1 | inconclusive: 14.1 µM [inhibitor, partial curve, poor fit] | 
CCOC(=O)C1(CCCc2ccccc2)CCN(C(=O)c2ocnc2C)CC1 | inconclusive: 8.91 µM [inhibitor, partial curve] | 
Cc1cc(C)c(NC(=O)C2CC(=O)N(c3ccc4c(c3)OCCO4)C2)c(C)c1 (configuration not stated) | inconclusive: 8.91 µM [inhibitor, partial curve] | 
CCNC(=O)Oc1ccc(-c2csnn2)cc1 | inconclusive: 31.6 µM [inhibitor, partial curve, poor fit] | 
CCOC(=O)C1=C(c2ccccc2)N=c2s/c(=C\c3ccc(O)cc3)c(=O)n2C1c1cccs1 (configuration not stated) | inconclusive: 25.1 µM [inhibitor, partial curve, poor fit] | 
C[C@]12c3[nH]c4ccc(Cl)cc4c3CCN1C(=O)[C@@H](CC(=O)NCc1cccc(C(F)(F)F)c1)C[C@@H]2C(=O)N1CCOCC1 | inconclusive: 39.8 µM [inhibitor, single point] | 
CN(c1ccccc1)S(=O)(=O)c1cccc(NC(=O)CCNC(=O)c2ccc(Cl)cc2)c1 | inconclusive: 31.6 µM [inhibitor, partial curve, poor fit] | 
COc1ccc(-n2c(C)cc(C(=O)COC(=O)Cc3n[nH]c(=O)c4ccccc34)c2C)cc1 | inconclusive: 28.2 µM [inhibitor, partial curve, poor fit] | 
CCOc1ccc(/C=C2/C(=O)N(c3ccc(OC)cc3)C(=S)N2CC(=O)OC)cc1OCC | inconclusive: 3.98 µM [inhibitor, full curve] | 
C=CCn1c(=O)/c(=C/c2cc(OC)c(OC)c(OC)c2)s/c1=C(/C#N)c1nc2ccccc2n1C | inconclusive: 2.82 µM [inhibitor, full curve] | 
O=S1(=O)CCOCCCN1Cc1ccccc1Br | inconclusive: 7.08 µM [inhibitor, partial curve] | 
CCC(=O)Nc1ccc(S(=O)(=O)Nc2c(NC)c3ccccc3oc2=O)cc1 | inconclusive: 17.8 µM [inhibitor, partial curve, poor fit] | 
O=C(NCCc1ccccn1)c1cc(-c2ccc(Cl)c(Cl)c2Cl)nc2ccccc12 | inconclusive: 39.8 µM [inhibitor, single point] | 
O=c1[nH]c(=S)[nH]c(O)c1N=Nc1ccc2c(c1)OCCO2 | inconclusive: 17.8 µM [inhibitor, single point] | 
O=C(O)c1ccc(N/N=C/c2ccc(F)c(F)c2)cc1 | inconclusive: 14.1 µM [inhibitor, partial curve, poor fit] | 
C(C#CCCCCCCCCC[n+]1ccccc1)#CCCCCCCCCC[n+]1ccccc1 | inconclusive: 17.8 µM [inhibitor, partial curve, poor fit] | 
Cc1cccc(N2CCN(S(=O)(=O)c3ccc4c(c3)NC(=O)C(C)S4)CC2)c1C (configuration not stated) | inconclusive: 12.6 µM [inhibitor, partial curve, poor fit] | 
Cc1cc(C(=O)CCl)c(C)n1-c1cccc(S(=O)(=O)N2CCOCC2)c1 | inconclusive: 25.1 µM [inhibitor, partial curve, poor fit] | 

Shown with each value named: entries from further up
Cc1nc2c(OCc3ccc(OC(F)F)cc3)cccn2c1N(C)C(=O)CCC1CCCC1
  Potency: inconclusive: 25.1 µM [inhibitor, single point]
O=C(NCCc1ccccn1)c1cc(-c2ccc(Cl)c(Cl)c2Cl)nc2ccccc12
  Potency: inconclusive: 39.8 µM [inhibitor, single point]

Remaining list, next part

Compound | Potency | activity, negative = inhibition
CCN(CC)S(=O)(=O)c1ccc(N(C)Cc2cccc(OC)c2OC)nc1 | inconclusive: 20 µM [inhibitor, partial curve, poor fit] | 
Cc1occc1C(=O)N/N=C/c1ccc2c(c1)OCO2 | inconclusive: 15.8 µM [inhibitor, single point] | 
CC(=O)OC(C)C1C2=C(C(=O)CC1(C)O)C(=O)c1c(ccc(-c3ccc4c(c3O)C(=O)C3=C(C4=O)C(C(C)OC(C)=O)C(C)(O)CC3=O)c1O)C2=O (configuration not stated) | inconclusive: 17.8 µM [inhibitor, partial curve, poor fit] | 
COc1ccc(C(=O)c2coc3ccc(OC(C)=O)cc23)cc1 | inconclusive: 22.4 µM [inhibitor, single point] | 
O=c1[nH]c(Cc2ccccn2)nc2scc(-c3ccc(Cl)cc3)c12 | inconclusive: 22.4 µM [inhibitor, partial curve, poor fit] | 
O=C(Cn1c2ncccc2c(=O)n1-c1ccccc1)Nc1ccc(Cl)cc1C(F)(F)F | inconclusive: 3.55 µM [inhibitor, full curve] | 
COc1ccc(-n2ncc3c(N4CCCCC4)ncnc32)cc1 | inconclusive: 10 µM [inhibitor, partial curve, poor fit] | 
N#Cc1ccccc1Sc1ccccc1C(=O)OCC(=O)NC12CC3CC(CC(C3)C1)C2 | inactive | 
O=S(=O)(NCc1cccnc1)c1ccc(Cl)nc1 | inconclusive: 12.6 µM [inhibitor, partial curve] | 
Cc1ccccc1OCCN1CCC(Cc2ccccc2)CC1 | inconclusive: 35.5 µM [inhibitor, partial curve, poor fit] | 
CCc1ccc(-c2nc(CCl)cs2)cc1 | inconclusive: 39.8 µM [inhibitor, single point] | 
O=c1c2cnn(-c3ccc(F)cc3)c2ncn1Cc1ccc(F)cc1 | inconclusive: 10 µM [inhibitor, partial curve, poor fit] | 
COc1ccc(C(=O)/C=C/C(=O)N(CC(=O)NC2CCCCC2)CC2CCCO2)c(O)c1 (configuration not stated) | inconclusive: 7.94 µM [inhibitor, full curve, poor fit] | 
Cc1cc(N2CCN(C(=O)c3ccco3)CC2)n2nc(-c3cccc(Cl)c3)cc2n1 | active: 22.4 µM | 
CCOC(=O)CSC1=NC(=O)/C(=C\c2ccc(Cl)cc2)S1 | inconclusive: 17.8 µM [inhibitor, partial curve, poor fit] | 
COc1ccc(CCNC(=O)C(=O)NCC2CCCN2S(=O)(=O)c2ccccc2)cc1OC (configuration not stated) | inconclusive: 22.4 µM [inhibitor, partial curve, poor fit] | 
O=C(Nc1cc(Cl)ccc1O)c1snnc1-c1ccccc1 | inconclusive: 20 µM [inhibitor, partial curve, poor fit] | 
O=C(COC(=O)c1cccc(S(=O)(=O)N2CCCC2)c1)Nc1cccc(Br)c1 | inconclusive: 1.12 µM [inhibitor, full curve] | 
CCN1CC2=C(OC(N)=C(C#N)C2c2cccs2)/C(=C/c2cccs2)C1 (configuration not stated) | inconclusive: 28.2 µM [inhibitor, partial curve, poor fit] | 
